The other results are listed elsewhere or left out.
Experiments:
Assay in all cases: glycan array binding signal (z-score within array); higher = stronger binding
Conditions in all cases: glycan notation: IUPAC condensed, linker removed
[1] = molecular target: GlcNAc(b1-3)Gal(b1-4)GlcNAc(b1-3)Gal(b1-4)GlcNAc(b1-2)Man(a1-3)[GlcNAc(b1-3)Gal(b1-4)GlcNAc(b1-3)Gal(b1-4)GlcNAc(b1-2)Man(a1-6)]Man(b1-4)GlcNAc(b1-4)GlcNAc
Method in brief: (§1)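 Glycan array binding is given as a within-array Z-score, which can be read as non-binding when negative. The arrays, 3228 of them, came from the Consortium for Functional Glycomics database and were retained only where the protein sequence was available. Z-scores were averaged across arrays of the same protein sequence at different concentrations or buffers and across linkers.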

[2] = molecular target: GlcNAc(b1-3)Gal(b1-4)GlcNAc(b1-3)Gal(b1-4)GlcNAc(b1-2)Man(a1-3)[GlcNAc(b1-3)Gal(b1-4)GlcNAc(b1-3)Gal(b1-4)GlcNAc(b1-2)Man(a1-6)]Man(b1-4)GlcNAc(b1-4)[Fuc(a1-6)]GlcNAc
Method in brief: as §1

[3] = molecular target: GlcNAc(b1-3)Gal(b1-4)GlcNAc(b1-3)Gal(b1-4)GlcNAc(b1-2)[GlcNAc(b1-3)Gal(b1-4)GlcNAc(b1-3)Gal(b1-4)GlcNAc(b1-6)]Man(a1-6)[GlcNAc(b1-3)Gal(b1-4)GlcNAc(b1-3)Gal(b1-4)GlcNAc(b1-2)Man(a1-3)]Man(b1-4)GlcNAc(b1-4)[Fuc(a1-6)]GlcNAc
Method in brief: as §1

[4] = molecular target: GlcNAc(b1-3)Gal(b1-4)GlcNAc(b1-3)Gal(b1-4)GlcNAc(b1-3)Gal(b1-4)GlcNAc(b1-2)Man(a1-3)[GlcNAc(b1-3)Gal(b1-4)GlcNAc(b1-3)Gal(b1-4)GlcNAc(b1-3)Gal(b1-4)GlcNAc(b1-2)Man(a1-6)]Man(b1-4)GlcNAc(b1-4)GlcNAc
Method in brief: as §1

[5] = molecular target: GlcNAc(b1-3)Gal(b1-4)GlcNAc(b1-3)Gal(b1-4)GlcNAc(b1-3)Gal(b1-4)GlcNAc(b1-2)Man(a1-3)[GlcNAc(b1-3)Gal(b1-4)GlcNAc(b1-3)Gal(b1-4)GlcNAc(b1-3)Gal(b1-4)GlcNAc(b1-2)Man(a1-6)]Man(b1-4)GlcNAc(b1-4)[Fuc(a1-6)]GlcNAc
Method in brief: as §1

[6] = molecular target: GlcNAc(b1-3)Gal(b1-4)GlcNAc(b1-3)Gal(b1-4)GlcNAc(b1-3)Gal(b1-4)GlcNAc(b1-2)[GlcNAc(b1-3)Gal(b1-4)GlcNAc(b1-3)Gal(b1-4)GlcNAc(b1-3)Gal(b1-4)GlcNAc(b1-6)]Man(a1-6)[GlcNAc(b1-3)Gal(b1-4)GlcNAc(b1-3)Gal(b1-4)GlcNAc(b1-3)Gal(b1-4)GlcNAc(b1-2)Man(a1-3)]Man(b1-4)GlcNAc(b1-4)[Fuc(a1-6)]GlcNAc
Method in brief: as §1

[7] = molecular target: GlcNAc(b1-3)Gal(b1-4)GlcNAc(b1-3)Gal(b1-4)GlcNAc(b1-3)Gal(b1-4)GlcNAc(b1-3)Gal(b1-4)GlcNAc(b1-2)Man(a1-3)[GlcNAc(b1-3)Gal(b1-4)GlcNAc(b1-3)Gal(b1-4)GlcNAc(b1-3)Gal(b1-4)GlcNAc(b1-3)Gal(b1-4)GlcNAc(b1-2)Man(a1-6)]Man(b1-4)GlcNAc(b1-4)GlcNAc
Method in brief: as §1

[8] = molecular target: GlcNAc(b1-3)Gal(b1-4)GlcNAc(b1-3)Gal(b1-4)GlcNAc(b1-3)Gal(b1-4)GlcNAc(b1-3)Gal(b1-4)GlcNAc(b1-2)Man(a1-3)[GlcNAc(b1-3)Gal(b1-4)GlcNAc(b1-3)Gal(b1-4)GlcNAc(b1-3)Gal(b1-4)GlcNAc(b1-3)Gal(b1-4)GlcNAc(b1-2)Man(a1-6)]Man(b1-4)GlcNAc(b1-4)[Fuc(a1-6)]GlcNAc
Method in brief: as §1

[9] = molecular target: GlcNAc(b1-3)Gal(b1-4)GlcNAc(b1-3)Gal(b1-4)GlcNAc(b1-3)Gal(b1-4)GlcNAc(b1-3)Gal(b1-4)GlcNAc(b1-2)[GlcNAc(b1-3)Gal(b1-4)GlcNAc(b1-3)Gal(b1-4)GlcNAc(b1-3)Gal(b1-4)GlcNAc(b1-3)Gal(b1-4)GlcNAc(b1-6)]Man(a1-6)[GlcNAc(b1-3)Gal(b1-4)GlcNAc(b1-3)Gal(b1-4)GlcNAc(b1-3)Gal(b1-4)GlcNAc(b1-3)Gal(b1-4)GlcNAc(b1-2)Man(a1-3)]Man(b1-4)GlcNAc(b1-4)[Fuc(a1-6)]GlcNAc
Method in brief: as §1

[10] = molecular target: GlcNAc(b1-3)Gal(b1-4)GlcNAc(b1-3)Gal(b1-4)GlcNAc(b1-3)GalNAc
Method in brief: as §1

[11] = molecular target: GlcNAc(b1-3)Gal(b1-4)GlcNAc(b1-3)GalNAc
Method in brief: as §1

[12] = molecular target: GlcNAc(b1-3)Gal(b1-4)GlcNAc(b1-3)[GlcNAc(b1-3)Gal(b1-4)GlcNAc(b1-3)]GalNAc
Method in brief: as §1

[13] = molecular target: GlcNAc(b1-3)Gal(b1-4)GlcNAc(b1-6)[Gal(b1-3)]GalNAc
Method in brief: as §1

[14] = molecular target: GlcNAc(b1-3)Gal(b1-4)GlcNAc(b1-6)[GlcNAc(b1-3)Gal(b1-3)]GalNAc
Method in brief: as §1

[15] = molecular target: GlcNAc(b1-3)Gal(b1-4)GlcNAc(b1-6)[GlcNAc(b1-3)]Gal(b1-4)GlcNAc
Method in brief: as §1

GlcNAc(b1-3)GalNAc = molecular target: GlcNAc(b1-3)GalNAc
Method in brief: as §1

GlcNAc(b1-3)Man = molecular target: GlcNAc(b1-3)Man
Method in brief: as §1

[16] = molecular target: GlcNAc(b1-3)[GlcNAc(b1-4)][GlcNAc(b1-6)]GlcNAc
Method in brief: as §1

[17] = molecular target: GlcNAc(b1-3)[GlcNAc(b1-6)]Gal(b1-4)GlcNAc
Method in brief: as §1

[18] = molecular target: GlcNAc(b1-3)[GlcNAc(b1-6)]GalNAc
Method in brief: as §1

[19] = molecular target: GlcNAc(b1-4)Gal(b1-4)GlcNAc
Method in brief: as §1

GlcNAc(b1-4)GlcNAc = molecular target: GlcNAc(b1-4)GlcNAc
Method in brief: as §1

[20] = molecular target: GlcNAc(b1-4)GlcNAc(b1-4)GlcNAc
Method in brief: as §1

[21] = molecular target: GlcNAc(b1-4)GlcNAc(b1-4)GlcNAc(b1-4)GlcNAc(b1-4)GlcNAc
Method in brief: as §1

[22] = molecular target: GlcNAc(b1-4)GlcNAc(b1-4)GlcNAc(b1-4)GlcNAc(b1-4)GlcNAc(b1-4)GlcNAc
Method in brief: as §1

[23] = molecular target: GlcNAc(b1-4)[GlcNAc(b1-6)]GalNAc
Method in brief: as §1

[24] = molecular target: GlcNAc(b1-6)Gal(b1-4)GlcNAc
Method in brief: as §1

GlcNAc(b1-6)GalNAc = molecular target: GlcNAc(b1-6)GalNAc
Method in brief: as §1

[25] = molecular target: GlcNAc6S(b1-3)Gal(b1-4)GlcNAc
Method in brief: as §1

Kdn(a2-3)Gal(b1-3)GalNAc = molecular target: Kdn(a2-3)Gal(b1-3)GalNAc
Method in brief: as §1

Kdn(a2-3)Gal(b1-3)GlcNAc = molecular target: Kdn(a2-3)Gal(b1-3)GlcNAc
Method in brief: as §1

Kdn(a2-3)Gal(b1-4)Glc = molecular target: Kdn(a2-3)Gal(b1-4)Glc
Method in brief: as §1

Kdn(a2-3)Gal(b1-4)GlcNAc = molecular target: Kdn(a2-3)Gal(b1-4)GlcNAc
Method in brief: as §1

[26] = molecular target: Kdn(a2-3)Gal(b1-4)[Fuc(a1-3)]GlcNAc
Method in brief: as §1

Kdn(a2-6)Gal(b1-4)GlcNAc = molecular target: Kdn(a2-6)Gal(b1-4)GlcNAc
Method in brief: as §1

[27] = molecular target: Man(a1-2)Man(a1-2)Man(a1-3)Man
Method in brief: as §1

[28] = molecular target: Man(a1-2)Man(a1-2)Man(a1-6)[Man(a1-3)]Man
Method in brief: as §1

Man(a1-2)Man(a1-3)Man = molecular target: Man(a1-2)Man(a1-3)Man
Method in brief: as §1

B1: HA-00510 (Pseudomonas aeruginosa), Q02V39_PSEAB (protein)
chain: GVPIVNIATPNGAGLSNNHFRDYNVGANGLILNNATGKTQGTQLGGIILGNPNLKGQAAQVILNQVTGGNRSTLAGYTEVAGQSARVIVANPHGITCQGCGFINTPRATLTTGKPIMDGQRLERFQVDGGDIVVEGAELNVGNLEQFDLITRSAKLNAKLYAKNLNIVTGRNDVQADSLQATPRAADGSEKPQLAIDSSALGGMYAGAIRLVGTEQGVGVKLAGDMAASGGDIRIDASGKLSLAQASSQGDLKIAAQAVELNGKTYAGGSAEIRSAEELVNRQS
In the case of B1, the “glycan array binding signal (z-score)” value [1] is reported as 4.3, the “glycan array binding signal (z-score)” value [2] is reported as 1.68 and the “glycan array binding signal (z-score)” value [3] is reported as 1.5. The “glycan array binding signal (z-score)” value [4] was 1.57, the “glycan array binding signal (z-score)” value [5] was -0.449 and the “glycan array binding signal (z-score)” value [6] was 0.54. For the same binder, the “glycan array binding signal (z-score)” value [7] was 0.95, the “glycan array binding signal (z-score)” value [8] was 0.56 and the “glycan array binding signal (z-score)” value [9] was -0.664. The “glycan array binding signal (z-score)” value [10] was -0.18, the “glycan array binding signal (z-score)” value [11] was 0.06 and the “glycan array binding signal (z-score)” value [12] was -0.255. For the same binder, the “glycan array binding signal (z-score)” value [13] was -1.21, the “glycan array binding signal (z-score)” value [14] was 0.345 and the “glycan array binding signal (z-score)” value [15] was -0.708. For the same binder, the “glycan array binding signal (z-score)” value (GlcNAc(b1-3)GalNAc) was -0.895, the “glycan array binding signal (z-score)” value (GlcNAc(b1-3)Man) was -0.566 and the “glycan array binding signal (z-score)” value [16] was -0.79. The “glycan array binding signal (z-score)” value [17] was -0.665, the “glycan array binding signal (z-score)” value [18] was -0.542 and the “glycan array binding signal (z-score)” value [19] was 0.418. For the same binder, the “glycan array binding signal (z-score)” value (GlcNAc(b1-4)GlcNAc) was -0.693, the “glycan array binding signal (z-score)” value [20] was -0.367 and the “glycan array binding signal (z-score)” value [21] was 0.345. The “glycan array binding signal (z-score)” value [22] was -1.17, the “glycan array binding signal (z-score)” value [23] was -0.368 and the “glycan array binding signal (z-score)” value [24] was 1.38. The “glycan array binding signal (z-score)” value (GlcNAc(b1-6)GalNAc) was 0.018, the “glycan array binding signal (z-score)” value [25] was -0.014 and the “glycan array binding signal (z-score)” value (Kdn(a2-3)Gal(b1-3)GalNAc) was 0.981. The “glycan array binding signal (z-score)” value (Kdn(a2-3)Gal(b1-3)GlcNAc) was -0.696, the “glycan array binding signal (z-score)” value (Kdn(a2-3)Gal(b1-4)Glc) was 0.718 and the “glycan array binding signal (z-score)” value (Kdn(a2-3)Gal(b1-4)GlcNAc) was 0.297. For the same binder, the “glycan array binding signal (z-score)” value [26] was 1.3, the “glycan array binding signal (z-score)” value (Kdn(a2-6)Gal(b1-4)GlcNAc) was -0.045 and the “glycan array binding signal (z-score)” value [27] was -0.329. For the same binder, the “glycan array binding signal (z-score)” value [28] was 0.054 and the “glycan array binding signal (z-score)” value (Man(a1-2)Man(a1-3)Man) was -0.716.
